Assay results published in paper PMC12596413.
Results are given in words; binding and its absence hold for the method and conditions named. Binding seen in cells or lysates may run through a third protein. Some results given as binding are weak or reduced against the parent protein; the word gives no strength.

Amino acid sequences for entries named in this document (tags omitted).
UniProt Q5S006: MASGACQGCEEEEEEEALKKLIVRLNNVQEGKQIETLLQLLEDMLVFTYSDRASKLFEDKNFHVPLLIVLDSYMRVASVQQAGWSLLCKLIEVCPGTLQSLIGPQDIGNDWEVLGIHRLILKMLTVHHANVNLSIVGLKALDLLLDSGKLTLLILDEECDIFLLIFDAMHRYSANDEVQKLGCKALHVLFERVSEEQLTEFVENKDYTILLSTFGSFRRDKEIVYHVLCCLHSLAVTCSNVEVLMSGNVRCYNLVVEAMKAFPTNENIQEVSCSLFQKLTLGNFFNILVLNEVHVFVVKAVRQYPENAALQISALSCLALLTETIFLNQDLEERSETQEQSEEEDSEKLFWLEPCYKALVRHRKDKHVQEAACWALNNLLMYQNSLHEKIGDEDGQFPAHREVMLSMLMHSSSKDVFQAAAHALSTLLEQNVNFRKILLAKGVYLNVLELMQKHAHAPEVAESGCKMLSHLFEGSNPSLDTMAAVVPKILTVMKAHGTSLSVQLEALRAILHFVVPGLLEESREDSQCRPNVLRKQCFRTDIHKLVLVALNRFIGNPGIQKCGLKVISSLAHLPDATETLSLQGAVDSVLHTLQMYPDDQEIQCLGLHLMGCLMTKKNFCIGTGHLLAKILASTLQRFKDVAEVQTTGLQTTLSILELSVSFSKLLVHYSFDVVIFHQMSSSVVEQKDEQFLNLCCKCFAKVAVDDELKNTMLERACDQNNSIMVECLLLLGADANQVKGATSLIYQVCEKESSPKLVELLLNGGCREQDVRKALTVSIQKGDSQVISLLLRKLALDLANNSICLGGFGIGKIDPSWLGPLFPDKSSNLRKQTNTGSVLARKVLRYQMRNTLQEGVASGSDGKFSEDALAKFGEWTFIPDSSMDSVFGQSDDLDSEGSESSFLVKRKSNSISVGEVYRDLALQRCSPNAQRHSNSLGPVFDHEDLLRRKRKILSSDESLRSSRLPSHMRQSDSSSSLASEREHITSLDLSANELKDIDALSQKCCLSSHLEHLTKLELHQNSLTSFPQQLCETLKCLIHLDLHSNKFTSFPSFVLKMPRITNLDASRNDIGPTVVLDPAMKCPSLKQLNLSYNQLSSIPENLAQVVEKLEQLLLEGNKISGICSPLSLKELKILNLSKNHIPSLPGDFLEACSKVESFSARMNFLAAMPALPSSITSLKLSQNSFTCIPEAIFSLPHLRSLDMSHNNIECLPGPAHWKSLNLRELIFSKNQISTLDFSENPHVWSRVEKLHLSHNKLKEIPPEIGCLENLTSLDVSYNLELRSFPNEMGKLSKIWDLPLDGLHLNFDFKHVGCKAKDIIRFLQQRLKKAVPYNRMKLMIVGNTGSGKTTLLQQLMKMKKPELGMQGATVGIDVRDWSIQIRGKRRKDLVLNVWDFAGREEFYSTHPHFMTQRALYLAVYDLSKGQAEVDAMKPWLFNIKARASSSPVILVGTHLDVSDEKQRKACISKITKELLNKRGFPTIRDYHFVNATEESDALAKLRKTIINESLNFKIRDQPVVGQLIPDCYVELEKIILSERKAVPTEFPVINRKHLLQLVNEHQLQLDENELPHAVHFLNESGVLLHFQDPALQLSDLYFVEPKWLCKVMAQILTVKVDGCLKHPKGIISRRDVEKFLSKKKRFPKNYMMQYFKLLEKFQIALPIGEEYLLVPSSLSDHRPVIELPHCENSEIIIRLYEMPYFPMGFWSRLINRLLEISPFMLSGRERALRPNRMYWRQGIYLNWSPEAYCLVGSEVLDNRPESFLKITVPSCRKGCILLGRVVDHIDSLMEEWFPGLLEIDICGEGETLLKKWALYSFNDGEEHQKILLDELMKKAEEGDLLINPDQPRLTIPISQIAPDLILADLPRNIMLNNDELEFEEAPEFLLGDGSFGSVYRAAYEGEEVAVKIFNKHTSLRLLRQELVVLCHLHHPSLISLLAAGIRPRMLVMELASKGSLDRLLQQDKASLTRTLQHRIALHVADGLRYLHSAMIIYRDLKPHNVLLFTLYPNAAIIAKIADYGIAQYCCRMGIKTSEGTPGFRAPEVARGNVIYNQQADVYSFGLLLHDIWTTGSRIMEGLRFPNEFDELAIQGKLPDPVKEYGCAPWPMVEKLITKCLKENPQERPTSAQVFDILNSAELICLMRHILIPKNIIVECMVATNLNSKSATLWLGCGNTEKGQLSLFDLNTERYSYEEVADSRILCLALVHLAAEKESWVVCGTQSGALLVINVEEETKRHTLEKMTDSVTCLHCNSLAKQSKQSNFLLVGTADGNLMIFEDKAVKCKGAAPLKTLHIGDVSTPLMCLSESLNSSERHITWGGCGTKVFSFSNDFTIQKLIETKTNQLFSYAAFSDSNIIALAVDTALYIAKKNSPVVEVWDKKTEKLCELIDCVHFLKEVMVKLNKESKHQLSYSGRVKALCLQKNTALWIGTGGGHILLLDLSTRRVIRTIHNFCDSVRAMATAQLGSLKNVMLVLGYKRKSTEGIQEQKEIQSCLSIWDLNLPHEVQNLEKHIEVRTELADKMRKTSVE

How the values were obtained:
[1] = molecular target: p62/SQSTM1 (mouse (endogenous in BV2)) (UniProt Q64337); experiment: co-IP; immunoprecipitation (IP) and reverse-IP of lysates from BV2 cells with antibodies specific for LRRK2 and p62, p62 and Nrf2; Western blot of the immunoprecipitated proteins
[2] = molecular target: T1, Nuclear factor erythroid 2-related factor 2 (Nrf2) (mouse (endogenous in BV2)) (UniProt Q60795); experiment: as above
T1 sequence: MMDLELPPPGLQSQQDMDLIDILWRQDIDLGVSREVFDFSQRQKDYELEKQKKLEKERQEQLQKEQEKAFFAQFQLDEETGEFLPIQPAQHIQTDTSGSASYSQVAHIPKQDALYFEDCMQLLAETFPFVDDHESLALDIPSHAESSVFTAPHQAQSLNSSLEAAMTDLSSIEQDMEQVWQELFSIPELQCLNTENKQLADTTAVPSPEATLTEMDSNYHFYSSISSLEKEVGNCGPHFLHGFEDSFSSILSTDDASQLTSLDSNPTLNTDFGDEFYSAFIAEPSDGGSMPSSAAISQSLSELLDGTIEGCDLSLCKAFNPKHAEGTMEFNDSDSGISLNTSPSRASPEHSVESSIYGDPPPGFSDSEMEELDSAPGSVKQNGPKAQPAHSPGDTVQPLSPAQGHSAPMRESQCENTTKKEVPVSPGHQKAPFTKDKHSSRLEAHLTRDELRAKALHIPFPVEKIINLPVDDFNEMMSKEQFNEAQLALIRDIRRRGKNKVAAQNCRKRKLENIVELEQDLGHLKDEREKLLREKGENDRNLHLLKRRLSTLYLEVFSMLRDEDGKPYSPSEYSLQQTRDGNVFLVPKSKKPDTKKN

binding [1]	binding [2]	Substance
binds		Leucine-rich repeat kinase 2 (LRRK2) (from UniProt Q5S006 1-2527)
	binds	p62/SQSTM1 (from UniProt Q64337-1 1-442)
